According to PubChem BioAssay AID2685 (National Center for Advancing Translational Sciences (NCATS), 2010):
This is one part of the list. Further columns of the screen follow, without active or inactive calls. Compounds called inactive in the main read-out are mostly missing here. Potencies come from curve fits of mixed quality, noted in brackets.

Experiment: qHTS Assay for Lipid Storage Modulators in Drosophila S3 Cells;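 as to cell number change: cells counted by Cell Tracker Red CMTPX staining in the red channel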
Details: BODIPY lipid droplet fluorescence, 18-24 h; for cell number change: measured here: cell count max response, cells fed with added oleic acid
Procedure, shortened: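 Laser-scanning cytometry quantifies lipid droplet accumulation (500–530 nm total intensity; droplet/cell object ratio) in oleic acid-fed (400 uM added) Drosophila S3 cells treated with a concentration series. 20 uM Triacsin C defined 100% inhibition.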

[1] = measured here: lipid fluorescence (Fed channel) AC50, cells fed with added oleic acid
[2] = measured here: cell number channel AC50, cells fed with added oleic acid

Row | Compound | cell number change [%] | AC50 [1] | AC50 [2]
1 | Cc1ccc(C(=O)Nc2ncccc2C)cc1S(=O)(=O)N1CCOCC1 | -25.6 | 6.51 µM [rising, partial curve] | 
2 | CCNc1nc(SCCOc2ccc(C)cc2)nc(N(C)C)n1 | -10.3 | 2.06 µM [rising, single point] | 
3 | COc1cc(C(=O)O/N=C(\N)c2cccc([N+](=O)[O-])c2)cc(OC)c1OC | 27.7 | 16.4 µM [rising, single point] | 
4 | CC(=O)Nc1ccc(OCCC[n+]2cccc(C(=O)[O-])c2)cc1 | 31 | 0.206 µM [rising, full curve, poor fit] | 
5 | CN(C)c1ccc(/C=C(\NC(=O)c2ccccc2)C(=O)NCc2ccncc2)cc1 | 17.1 | 29.1 µM [rising, partial curve, poor fit] | 
6 | COc1ccc(C2=NN(C(=O)CCC(=O)O)C(c3ccccc3)C2)cc1 (stereo unspecified) | 36.1 |  | 32.6 µM [rising, single point]
7 | COc1ccc(NC(=O)C2CC(=O)N/C(=N/N=C/c3ccccc3)S2)cc1 (stereo unspecified) | -34.3 | 32.6 µM [falling, single point] | 0.00461 µM [falling, full curve, poor fit]
8 | Cc1ccc(C)n1-n1c(C)nc2scc(-c3cccs3)c2c1=O | -40.1 | 0.731 µM [falling, full curve, poor fit] | 0.116 µM [falling, full curve, poor fit]
9 | N#CC1(c2ccccc2)CCC(=NNS(=O)(=O)c2ccccc2)CC1 (stereo unspecified) | -12 | 0.092 µM [falling, full curve, poor fit] | 
10 | CC(C)n1cc(NC(=O)C2CC(c3cccc(Br)c3)=NO2)cn1 (stereo unspecified) | 40.8 | 6.51 µM [rising, single point] | 29.1 µM [rising, single point]
11 | CN(Cc1ccccc1)S(=O)(=O)c1nnc(NC(=O)c2ccc(F)cc2)s1 |  | 29.1 µM [falling, single point] | 
12 | COC(=O)c1ccc(C2/C(=C(/O)c3ccc(OC(C)C)cc3)C(=O)C(=O)N2c2cc(C)on2)cc1 (stereo unspecified) | -41.1 | 36.6 µM [falling, partial curve, poor fit] | 29.1 µM [falling, single point]
13 | O=C(COC(=O)Cc1ccsc1)Nc1ccc(Cl)c(S(=O)(=O)N2CCOCC2)c1 | 14.3 | 0.0058 µM [falling, full curve, poor fit] | 
14 | Cc1ccccc1-n1c(=O)[nH]c(=O)c2c(N)c(C(=O)c3ccc(Cl)cc3)sc21 | 2.83 | 0.0291 µM [rising, full curve, poor fit] | 

Records 4 through 6 of the list above:
Row | Compound | cell number change [%] | AC50 [1] | AC50 [2]
4 | CC(=O)Nc1ccc(OCCC[n+]2cccc(C(=O)[O-])c2)cc1 | 31 | 0.206 µM [rising, full curve, poor fit] | 
5 | CN(C)c1ccc(/C=C(\NC(=O)c2ccccc2)C(=O)NCc2ccncc2)cc1 | 17.1 | 29.1 µM [rising, partial curve, poor fit] | 
6 | COc1ccc(C2=NN(C(=O)CCC(=O)O)C(c3ccccc3)C2)cc1 (stereo unspecified) | 36.1 |  | 32.6 µM [rising, single point]
